From PubChem BioAssay AID504648 (National Center for Advancing Translational Sciences (NCATS), 2011)
Hit rate of the full screen: of about 390,000 compounds, about 610 (0.16%) were called active. Inconclusive results, whose numbers are uncertain, are shown with a selection of clear calls. Calls follow the shape of the dose curve; as a rule, active = well fitted inhibition curve with a large enough effect; inconclusive = small, poorly fitted or top-dose-only effect, or effect the other way, or another doubt; inactive = no such curve, though single readings can be large or run the other way. Potencies of inconclusive entries are doubtful fits and often do not repeat.

Test: Nrf2 qHTS screen for inhibitors: counterscreen for cytotoxicity
Conditions: A549 ARE-Fluc cells, CellTiter-Fluor viability, 18-24 h; activity change, negative = cytotoxicity: at 46 µM (top of the series)
Procedure, shortened: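 A549 ARE-Fluc cells in 5% FBS OPTI-MEM, 5000 cells/well, rested 2 h then exposed to compounds in concentration-response for 18-24 h at 37 °C. Viability by CellTiter-Fluor fluorescence (Ex 405/Em 525) after 30 min; luciferase luminescence (BugLite, 15 min, RT) read afterwards.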
% is scaled to controls: 0 for no effect and ±100 for the full control effect; potency is read from the fitted curve at half-maximal effect.

SMILES | Potency | activity change, negative = cytotoxicity
O=C(COc1ncnc2sccc12)Nc1ccc(F)cc1F | inconclusive: 29.1 µM [activator, single point] | –
CCCC1(c2ccccc2)NC(=O)N(CC(=O)Nc2sc(-c3ccccc3)cc2C(=O)OCC)C1=O (stereo not given) | inconclusive: 23.1 µM [falling, single point] | –
CCc1ccc(S(=O)(=O)N(C(=O)c2ccncc2)c2ccc3oc(C)c(C(=O)OC)c3c2)cc1 | – | inactive: -12.9%
COc1ccc2[nH]c3c(c2c1)CCN1C(=O)C(CC(=O)NCCC2=CCCCC2)C[C@H](C(=O)N(C(C)C)C(C)C)[C@@]31C (stereo not given in full) | inconclusive: 23.1 µM [falling, single point] | –
Brc1ccc2c(c1)OCCOCCOc1cc(Br)ccc1OCCOCCOCCO2 | inconclusive: 20.6 µM [falling, single point] | –
CSc1scc2c1-c1nc(SCC(=O)C(C)(C)C)ncc1CC2 | inconclusive: 32.6 µM [falling, partial curve, poor fit] | –
CSCCNC(=O)c1ccc(OC2CCN(CCc3ccccc3)CC2)cc1 | inconclusive: 23.1 µM [falling, partial curve, poor fit] | –
Cc1cc(N2CCCN(C)CC2)nc2cc(Cl)ccc12 | inconclusive: 29.1 µM [falling, single point] | –
Cc1ccc(CNc2ccc3c(c2)OCO3)cc1 | – | inactive: -24.1%
CSc1ccc(CCNC(=O)Cn2ccc3cc(S(=O)(=O)N4CCCCCC4)ccc32)cc1 | – | inactive: -9.72%
CCCCSc1nnc2c(n1)OC(c1ccc(Br)s1)N(C(C)=O)c1ccccc1-2 (stereo not given) | inconclusive: 29.1 µM [falling, single point] | –
COc1ccc(NC(=O)CCCOc2ccc(Cl)c(C)c2)cc1S(=O)(=O)N1CCOCC1 | inconclusive: 29.1 µM [falling, single point] | –
CCOc1ccccc1-c1noc(CSc2nnc(-c3ccccc3)n2-c2ccc(F)cc2)n1 | inconclusive: 29.1 µM [falling, single point] | –
COc1ccc(NS(=O)(=O)c2ccc(NS(C)(=O)=O)cc2)cc1 | inconclusive: 3.26 µM [falling, partial curve, poor fit] | –
Cn1nnnc1SCCCNCc1cc(Cl)ccc1OCc1ccc(F)cc1 | inconclusive: 0.461 µM [falling, partial curve, poor fit] | –
C=CCn1c(NCc2ccc(OC)cc2O)nc2ccccc21 | – | inactive: 7.15%
O=c1[nH]c(=O)n(-c2ccc(F)cc2)c2c1C(C(F)(F)F)(C(F)(F)F)N=C(c1ccc(F)cc1)N2 | inconclusive: 14.6 µM [falling, partial curve] | –
CCN(CC)S(=O)(=O)c1ccc(C)c(NC(=O)COc2ccc(Cl)cc2Br)c1 | inconclusive: 6.51 µM [falling, partial curve, poor fit] | –
O=[N+]([O-])c1ccc(N2CCCC2)cc1N1CCCC1 | inconclusive: 5.17 µM [falling, partial curve, poor fit] | –
CC(C)(CC(=O)N1CCN(c2ccc(Cl)cc2)CC1)CC1=NS(=O)(=O)c2ccccc2N1 | inconclusive: 29.1 µM [falling, partial curve, poor fit] | –
CCC1CN(C(=O)N2CCC(C(=O)Nc3ccccc3F)CC2)c2ccccc2O1 (stereo not given) | inactive | –
CCOC(=O)CNC(=O)N1CCc2ccc(NC(=O)c3ccccc3Cl)cc2C1 | – | inactive: -4.78%

SMILES | Potency | activity change, negative = cytotoxicity
C[C@@H]1NC(=O)[C@H](CCC(N)=O)NC(=O)c2cc([N+](=O)[O-])cc(I)c2NCC[C@@H](C(N)=O)NC1=O | inconclusive: 32.6 µM [falling, partial curve, poor fit] | –
CCCCNc1nc(-c2ccccc2)c(C(=O)OCC)cc1C#N | inconclusive: 20.6 µM [falling, partial curve, poor fit] | –
CCc1nnc(NC(=O)c2ccc(S(=O)(=O)N(CC(C)C)CC(C)C)cc2)o1 | inconclusive: 23.1 µM [falling, partial curve, poor fit] | –
CCc1ccc(OCc2cc(=O)n3c4c(sc3n2)CCCC4)cc1 | – | inactive: 13.5%
O=c1c2ccccc2c(-c2ccccc2)nn1-c1ccc(Cl)c(Cl)c1 | inconclusive: 6.51 µM [activator, partial curve, poor fit] | –
COc1cc(OC)cc(-c2nnc3n2N=C(c2c(OC)cccc2OC)CS3)c1 | – | inactive: -2.26%
Cc1cc(C)n(C2=NS(=O)(=O)c3ccccc32)n1 | inconclusive: 10.3 µM [activator, partial curve, poor fit] | –
C=CCn1c(CCNC(=O)c2cccs2)nnc1SCC(=O)Nc1cccc(Cl)c1C | inconclusive: 4.61 µM [activator, partial curve, poor fit] | –
Cc1cccc(-c2nc3ccccc3n2Cc2ccccc2)c1 | inconclusive: 29.1 µM [falling, single point] | –
COc1cc(-c2nnc(SCC(=O)N3CCOCC3)o2)cc(OC)c1OC | inconclusive: 4.11 µM [falling, partial curve, poor fit] | –
O=C(O)c1ccc(NC(=S)NC(=O)c2ccc3ccccc3c2)cc1 | – | inactive: 1.21%
CCOC(=O)c1ccc(N2C(=O)c3n[nH]c(-c4ccco4)c3C2c2ccc(OCC)cc2)cc1 (stereo not given) | inconclusive: 29.1 µM [falling, single point] | –
COc1cc(C2CC(=O)c3cnc(N4CCN(CCO)CC4)nc3C2)cc(OC)c1OC (stereo not given) | – | inactive: -8.85%
COc1ccc(CCCC(=O)NC2CCCCC2)cc1 | inconclusive: 16.4 µM [activator, single point] | –
Cc1ccc(S(=O)(=O)Nc2cccc3c2O[C@H](CN(C)C(=O)Nc2ccc(C(F)(F)F)cc2)[C@@H](C)CN([C@H](C)CO)C3=O)cc1 | – | inactive: -17.9%
Cc1ccc(S(=O)(=O)N2CCCc3cc(NS(=O)(=O)c4cc(F)ccc4F)ccc32)cc1 | inconclusive: 29.1 µM [falling, partial curve, poor fit] | –
COc1cccc(NC(=O)C(OC(=O)CNC(=O)c2ccccc2)c2ccccc2)c1 (stereo not given) | – | inactive: -4.05%
CCCCCn1nc(-c2ccccc2)c2nc3ccccc3nc21 | inconclusive: 16.4 µM [activator, partial curve, poor fit] | –
COc1cc(/C=C/c2ccc3c(Br)cc(Br)c(O)c3n2)ccc1O | inconclusive: 29.1 µM [falling, single point] | –
OC(COc1ccc(OCC(O)CN2CCCCCC2)cc1)CN1CCCCCC1 (stereo not given) | active: 2.59 µM | –
O=C(c1ccccc1)N1CCN2C(=O)c3ccccc3C12c1ccc(Cl)cc1 (stereo not given) | – | inactive: -4.69%
O=[N+]([O-])c1cc(Cl)c2cccnc2c1O | inconclusive: 14.6 µM [falling, partial curve] | –

SMILES | Potency | activity change, negative = cytotoxicity
O=C(Nc1nnc(C(F)(F)F)s1)c1ccc(Br)s1 | – | inactive: -5.71%
CCOC(=O)c1c(C)oc2c(F)c(F)c(F)c(F)c2c1=O | inconclusive: 29.1 µM [falling, single point] | –
O=C(O)C1Nc2c(O)cc(Cl)c([N+](=O)[O-])c2C2C=CCC12 (stereo not given) | inconclusive: 18.4 µM [falling, partial curve, poor fit] | –
CCc1ccc(NC(=O)COn2nnc3ccc(S(=O)(=O)N(C)C)cc32)cc1 | inconclusive: 25.9 µM [falling, single point] | –
O=C(Nc1cccc(S(=O)(=O)Nc2ccc(Cl)cc2)c1)c1cc2c(s1)CCCC2 | inconclusive: 18.4 µM [falling, partial curve, poor fit] | –
COC(=O)CN1C(=O)CSc2ccc(S(=O)(=O)Nc3cccc(Br)c3)cc21 | – | inactive: 14.6%
COc1cc(CNc2ccc(N3CCN(C(C)=O)CC3)cc2)ccc1OCc1ccc(F)cc1 | – | inactive: -18.9%
CC(=O)N/C(=C\c1ccccc1)C(=O)OCc1cccc(S(=O)(=O)N(C)C)c1 | – | inactive: -3.75%
COc1ccc2[nH]c3c(N4CCc5ccccc5C4)ncnc3c2c1 | active: 18.4 µM | –
CC1CCCN(C2=C(NS(=O)(=O)c3ccc(Cl)cc3)C(=O)c3ccccc3C2=O)C1 (stereo not given) | inconclusive: 23.1 µM [falling, single point] | –
COc1ccc2c(c1)c(=Cc1ccc(N(C)C)cc1)c1cc(-c3ccccc3)[n+](C)n12 | inconclusive: 16.4 µM [falling, single point] | –
Cc1nnc(N2CCC(C(=O)Nc3ccc(F)cc3)CC2)c2nn(-c3ccc(Cl)cc3)c(C)c12 | inconclusive: 20.6 µM [falling, single point] | –
COc1cccc(/C=C2/SC(=S)N(CCC(=O)N3CCOCC3)C2=O)c1 | inconclusive: 18.4 µM [falling, partial curve] | –
CCCCCCCCNc1ncnc2ccccc12 | inconclusive: 20.6 µM [falling, partial curve, poor fit] | –
Cc1cccc(Oc2cc(NC(=O)c3ccccc3)cc([N+](=O)[O-])c2)c1 | inconclusive: 29.1 µM [falling, single point] | –
O=C(Nc1ccc(Cl)cn1)c1ccc(COc2ccccc2Br)o1 | – | inactive: 2.05%
CCCCOc1ccc(CNC(=O)Cc2ccc(NC(=O)N3CCCCc4ccccc43)cc2)cc1 | – | inactive: -2.81%
O=C(N/N=C/c1cc(Cl)ccc1O)c1ccncc1 | – | inactive: -9.56%
CCS(=O)(=O)c1ncc(Cl)c(C(=O)Nc2ccc(S(=O)(=O)N3CCCC(C)C3)cc2)n1 (stereo not given) | inconclusive: 29.1 µM [falling, single point] | –
Cc1cc(N2CCN(Cc3cn(C)nc3-c3ccccc3F)CC2)cc(C)n1 | inconclusive: 18.4 µM [falling, partial curve, poor fit] | –
Cc1cc(Br)ccc1NC(=O)Cn1cnc2sc(C)c(S(=O)(=O)N3CCN(C)CC3)c2c1=O | inconclusive: 32.6 µM [falling, partial curve, poor fit] | –

Gathered by group, those above containing a COOH group
SMILES | Potency | activity change, negative = cytotoxicity
O=C(O)c1ccc(NC(=S)NC(=O)c2ccc3ccccc3c2)cc1 | – | inactive: 1.21%
O=C(O)C1Nc2c(O)cc(Cl)c([N+](=O)[O-])c2C2C=CCC12 (stereo not given) | inconclusive: 18.4 µM [falling, partial curve, poor fit] | –
